In publication PMC8590370:
These are yes or no findings as the source states them, for the method shown. Binding seen in cells or lysates may run through a third protein. Some results given as binding are weak or reduced against the parent protein; the word gives no strength.

Sequences of proteins named here, by UniProt entry; tags and fusion partners are left off.
UniProt P51858: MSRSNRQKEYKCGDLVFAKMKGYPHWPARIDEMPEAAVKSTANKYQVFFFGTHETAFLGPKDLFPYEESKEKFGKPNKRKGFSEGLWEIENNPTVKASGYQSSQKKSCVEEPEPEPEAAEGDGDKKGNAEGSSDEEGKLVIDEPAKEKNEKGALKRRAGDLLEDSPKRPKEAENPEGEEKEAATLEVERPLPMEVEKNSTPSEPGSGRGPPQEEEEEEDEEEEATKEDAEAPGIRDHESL
UniProt P05412: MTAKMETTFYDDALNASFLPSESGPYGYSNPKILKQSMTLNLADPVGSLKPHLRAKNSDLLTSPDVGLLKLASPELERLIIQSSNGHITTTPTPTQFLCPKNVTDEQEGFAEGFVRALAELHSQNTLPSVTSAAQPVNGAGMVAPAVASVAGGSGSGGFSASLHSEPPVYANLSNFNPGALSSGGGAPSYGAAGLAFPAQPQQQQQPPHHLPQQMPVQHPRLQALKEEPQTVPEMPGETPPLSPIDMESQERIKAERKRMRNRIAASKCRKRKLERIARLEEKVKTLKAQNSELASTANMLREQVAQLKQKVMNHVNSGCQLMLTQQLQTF

Molecular target: hepatoma-derived growth factor (HDGF) (human (endogenous in breast cancer cells MCF-7, MDA-MB-231)) (UniProt P51858)
Experiment: co-IP; endogenous proteins of breast cancer cells; Pierce Co-IP Kit; 3000 µg of protein incubated with anti-NAP1L1, anti-HDGF, anti-c-Jun or anti-IgG antibodies for 12 h at 4 °C; Western blot; anti-IgG as negative control

## c-Jun (from UniProt P05412 1-331)
  binding: binds
